These results are taken from PubChem BioAssay AID2685 (National Center for Advancing Translational Sciences (NCATS), 2010).

The assay is described as follows: qHTS Assay for Lipid Storage Modulators in Drosophila S3 Cells.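 As to cell number change: cells counted by Cell Tracker Red CMTPX staining in the red channel.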 As to conditions: BODIPY lipid droplet fluorescence, 18-24 h; for cell number change: measured here: cell count max response, cells fed with added oleic acid. An excerpt:
NIH Molecular Libraries Probe Production Centers Network [MLPCN] NIH Chemical Genomics Center [NCGC] MLPCN Grant: 1 R03 MH085686-01 Assay Submitter (PI): Beller, Mathias; Max-Planck-Institut fur Biophysikalische Chemie NCGC Assay Overview: Storing lipids as a reservoir for energy or the anabolism of elementary metabolites is a common feature of probably all cells and is conserved from bacteria to humans. The universal cellular lipid storage organelle is the so-called lipid storage droplet (LD). Although ubiquitous, LDs share a simple structure composed of a hydrophobic core that harbors the storage lipids, which is shielded by a droplet-specific phospholipid monolayer to which proteins are attached. The current model of LD biogenesis involves an incorporation of the lipid core into the membrane leaflets of the endoplasmic reticulum (ER) followed by a subsequent budding-like maturation of a LD, which ultimately pinches off. Once released, LD volume can increase by localized lipogenesis or fusion of existing droplet. Storage lipids are re-mobilized enzymatically by lipase activity. Lipase regulation in the adipocyte is heavily studied and involves multiple components including catecholamine signaling, the LD-associated proteins Perilipin and comparative gene identification (CGI-58) and at least two lipases named hormone sensitive lipase (HSL) and adipocyte triglyceride lipase (ATGL). LD regulation outside of the adipocyte is poorly understood and only few components are known. However, there is an urgent need to learn more about ectopic fat depots as mislocalized storage of lipids, for example in the liver or muscle, is an eminent health problem associated with insulin resistance or the metabolic syndrome. We developed a laser-scanning cytometer assay to enable 1,536-well screening and combined the results of the small molecules screen with an RNAi database based on lipid storage.
Triacsin C (Sigma-Aldrich T-4540), an inhibitor of long-chain fatty acyl CoA synthetase that blocks synthesis of triglycerides, was used as a positive control for lipid under-storage. A total of 23 nL of compound solution of different concentrations were transferred to the assay plates using a Kalypsys pin tool equipped with a 1,536-pin array containing 10-nL slotted pins (FP1S10, 0.457-mm diameter, 50.8 mm long; V&P Scientific). One microliter of oleic acid (400 uM) was added, and the plate was lidded with stainless steel rubber gasket lined lids containing pinholes. […] Fluorescence was detected by excitation of the fluorophores with a 488-nm laser on an Acumen Explorer (TTP Lab Tech). The total intensity in channel 2 (500-530 nm) reflected lipid droplet accumulation. Cells were detected using channel 3 (575-640 nm) with 5-um width and 100-um depth filters. The ratio of the number of objects in PMT channel 2 over the number of objects in PMT channel 3 was also calculated. Percent activity was computed relative to an internal control (100% inhibited lipid droplet deposition due to the presence of 20 uM Triacsin C), which was added to 32 wells/plate.
A general note: qHTS replaces the single test concentration by a dilution series.

The mark [1] stands for this setting: measured here: cell number channel AC50, cells fed with added oleic acid.
Setting [2] is: measured here: lipid fluorescence (Fed channel) AC50, cells fed with added oleic acid.

This is one part of the list. Shown are side measurements of this screen, not its main read-out; they come without a call. The list favours compounds with an active or inconclusive main result. Potencies come from curve fits of mixed quality, noted in brackets.

Turning to `COc1ccc(-c2cn(Cc3ccc(C(=O)NCc4ccc(C)cc4)cc3)c(C(C)N)n2)cc1` (configuration not stated), the cell number change was -11.6%. Moreover, the AC50 (as a rule, the midpoint of the concentration-response curve, whichever way the signal moves) under setting [1] was 7.31 µM [falling, single point]. Moreover, under setting [2], the half-maximal activity concentration (AC50) was 0.058 µM [falling, full curve, poor fit].

With `CC1CCCN(CCCOc2ccc([N+](=O)[O-])cc2)C1` (configuration not stated), the cell number change is 86.5%. Moreover, under setting [1], the AC50 was 32.6 µM [rising, partial curve, poor fit]. Besides, under setting [2], the AC50 was 20.6 µM [rising, single point].

As to `COc1cc(/C=N/NC(=O)c2cc(C3CC3)[nH]n2)ccc1O`, the cell number change was -13.2%. Moreover, the AC50 under setting [1] was 1.03 µM [falling, full curve].

As for `Cc1ccc(SCC(=O)Nc2ccc(S(=O)(=O)Nc3ncccn3)cc2)cc1`, the cell number change was determined as 28.9%. Besides, the half-maximal activity concentration (AC50) under setting [2] is 36.6 µM [rising, partial curve, poor fit].

On to `COc1ccc(C)cc1NC(=O)NCc1ccco1`, for which the cell number change is -44.8%.

With `CCOC(=O)c1sc(N)c(C#N)c1COC(=O)C1=COCCO1`, the cell number change was -15.3%.

On to `CCOc1ccc(Nc2nc3cc(S(=O)(=O)CC)ccc3o2)cc1`, for which the cell number change is 30.9%. Also, the AC50 under setting [1] is 23.1 µM [rising, partial curve, poor fit]. The concentration at half-maximal activity (AC50) under setting [2] is 0.00517 µM [rising, full curve, poor fit].

In the case of `COC(=O)C1(C)NC(c2ccc(O)cc2)C2C(=O)N(c3ccc4c(c3)OCCO4)C(=O)C21` (configuration not stated), the cell number change came to 57.5%. Moreover, the half-maximal activity concentration (AC50) under setting [1] is 14.6 µM [rising, partial curve].

As for `Cc1n(C)c2cc(Cl)ccc2[n+]1Cc1ccccc1`, the cell number change is 14%.

Turning to `CCC(=O)Nc1nnc(S(=O)(=O)N2CCCC2)s1`, the cell number change came to 0.599%. Moreover, the half-maximal activity concentration (AC50) under setting [2] was 20.6 µM [rising, single point].

Take `Cc1ccc(Cl)cc1NC(=O)COC(=O)CC1CCCCC1`: the cell number change was determined as 36.4%. In addition, the AC50 under setting [2] is 3.66 µM [falling, single point].

Turning to `CSc1nnc2n(C3CCCCC3)c(=O)c3c4c(sc3n12)CCCC4`, the cell number change was -8.93%. Also, under setting [2], the concentration at half-maximal activity (AC50) was 2.59 µM [falling, full curve].

In the case of `O=C1CC2(CCN(C(=O)c3cccc(Cl)c3)CC2)Oc2ccccc21`, the cell number change is -25%. The AC50 under setting [2] was 5.8 µM [falling, full curve, poor fit].

On to `Cc1cccn2cc(CNS(=O)(=O)c3ccc4ccccc4c3)nc12`, for which the cell number change amounted to 8.15%. For the same compound, the concentration at half-maximal activity (AC50) under setting [2] is 29.1 µM [falling, single point].

For the compound `CCO[C@H]1OC(C(=O)N2CCN(Cc3ccccc3)CC2)=C[C@@H](C2CCCCC2)[C@@H]1CCCO`, under setting [2], the AC50 is 29.1 µM [falling, partial curve].

Regarding `CC(=O)OC(C[N+]1(C)CCCCCC1)c1ccccc1` (configuration not stated), the cell number change was 21.3%.

On to `CCCn1nnc(NC(=S)NC(=O)C(C)(C)C)n1`, for which the AC50 under setting [1] was 0.00517 µM [falling, full curve, poor fit].

Consider `O=c1c2[nH]c3cccc(Cl)c3c2ncn1CCN1CCCCC1`, for which the cell number change worked out at 26.5%. Under setting [2], the AC50 is 20.6 µM [rising, single point].

`C=CCn1c(=O)c2ccccc2n2c(SCC(=O)N(C)C)nnc12`: the cell number change is -5.56%. Further, the AC50 under setting [1] was 0.731 µM [falling, partial curve, poor fit].

`Cc1cc(=O)oc2c(C)c(OCC(=O)N3CCN(c4ccc(F)cc4)CC3)ccc12`: the cell number change worked out at 11.2%. For the same compound, under setting [2], the concentration at half-maximal activity (AC50) was 20.6 µM [falling, single point].

`CCOc1ccc(C2C(C(=O)c3ccco3)=C(O)C(=O)N2Cc2cccnc2)cc1` (configuration not stated): the cell number change is -34.2%. The half-maximal activity concentration (AC50) under setting [2] is 3.66 µM [falling, full curve].

As to `COc1ccccc1OCC(=O)Nc1ccc2c(c1)OCCO2`, the cell number change was 11.1%.

Take `COC(=O)N1C(=O)[C@@](Cc2ccccc2)(c2ccccc2)N1C(=O)OC`: the cell number change is -6.89%.

For `CC(C)C(NC(=S)NCc1ccccc1)C(=O)O` (configuration not stated), the cell number change was 21.9%.

For the compound `Cc1ccc(C2=NS(=O)(=O)N(C)C(C(=O)Nc3cc(C)n(CC(=O)N4CCCCC4)n3)=C2)cc1`, the concentration at half-maximal activity (AC50) under setting [2] is 29.1 µM [rising, single point].

Take `Cc1ccc(S(=O)(=O)NC(=O)c2cccn2C)cc1`: the cell number change turned out to be 6.82%.

`CCN1C(=O)C(=O)N(CC(=O)N2CCC(C)Sc3ccccc32)C1=O` (configuration not stated): the cell number change was -4.02%. Also, under setting [2], the AC50 was 0.82 µM [falling, single point].

Regarding `Clc1cccc(-c2nc(NCC3CCCO3)c3ccccc3n2)c1` (configuration not stated), the cell number change is 2.15%. Besides, under setting [2], the concentration at half-maximal activity (AC50) is 0.517 µM [rising, full curve, poor fit].

For `COC(=O)CN1C(=S)N(c2ccc(OC)cc2)C(=O)C1CC(=O)Nc1ccc(F)cc1` (configuration not stated), the cell number change was -2.58%. Further, under setting [2], the AC50 is 2.31 µM [falling, partial curve].

With `COC(=O)c1ccc(/C=C/c2c(-c3ccsc3)oc3ccc(N4CCOCC4)cc23)cc1`, the cell number change was -20.7%. Further, the AC50 under setting [2] is 23.1 µM [falling, single point].

Take `CCOC(=O)C1=C(C)N=c2s/c(=C\c3ccc(OC(C)=O)c(OCC)c3)c(=O)n2C1/C=C/c1ccccc1` (configuration not stated): the cell number change worked out at 19.3%. Besides, the half-maximal activity concentration (AC50) under setting [1] is 6.51 µM [rising, single point]. The AC50 under setting [2] is 6.51 µM [rising, full curve, poor fit].

As for `Cc1ccc(SCC(=O)Nc2cccc(C(=O)NC(C)(C)C)c2)cc1`, the cell number change is 17.8%. In addition, the AC50 under setting [2] is 23.1 µM [rising, partial curve, poor fit].

In the case of `Cc1cccc(C)c1NC1=NC(=S)N(c2ccc(C(=O)O)cc2)C12CCCCC2`, the AC50 reads like this: under setting [1], 6.51 µM [rising, partial curve]; under setting [2], 6.51 µM [rising, partial curve].

For the compound `C/C(CC(=O)Nc1ccccn1)=N\NC(=O)C(=O)Nc1ccccc1C`, the cell number change came to 9.81%. Also, the half-maximal activity concentration (AC50) under setting [2] is 0.651 µM [rising, full curve, poor fit].

For the compound `Cc1ccccc1C(=O)NC(CC(C)C)C(=O)OCC(=O)c1c(N)n(C)c(=O)n(C)c1=O` (configuration not stated), the cell number change is -11.8%.

For `O=C(CSc1n[nH]c(-c2ccncc2)n1)NC1CCS(=O)(=O)C1` (configuration not stated), the cell number change was -7.79%. In addition, the AC50 under setting [2] was 3.26 µM [rising, full curve].

With `O=c1sc(/C=N/Nc2ccccc2)c(Cl)n1Cc1ccccc1`, the cell number change was -7.39%. For the same compound, the AC50 under setting [2] is 2.31 µM [rising, partial curve].

Take `CCOc1ccc(/C(C)=N/NC(=O)C(OC)c2ccccc2)cc1` (configuration not stated): the cell number change was -10.8%.

On to `NC(=O)CNC1CC(=O)N(CCc2ccccc2)C1=O` (configuration not stated), for which the cell number change was -110%. The AC50 under setting [1] is 23.1 µM [falling, partial curve]. Besides, the AC50 under setting [2] is 20.6 µM [falling, partial curve].

Regarding `Cc1cccnc1Nc1ncnc(N)c1[N+](=O)[O-]`, the cell number change is -11%. For the same compound, the concentration at half-maximal activity (AC50) under setting [1] is 1.84 µM [rising, partial curve, poor fit].
